Source: US10933039B2, “Coolant mixtures” (Symrise AG, priority 2016, dated 2021)

Assay: Sensory evaluation of coolant mixtures by a panel of 5 trained testers (cooling effect and flavor profile) in a standard chewy candy preparation
Type: in vivo
Conditions: panel score (5)=very true to (0)=largely not true; mean values of 5 trained testers; unsweetened, non-aromatized standard chewy candy preparation
Protocol: The cooling effect and flavor profile of various coolant mixtures were evaluated by a panel consisting of 5 trained testers. For this purpose, the mixtures were incorporated into an unsweetened and non-aromatized standard chewy candy preparation. The evaluation was reported according to the notation (5)=very true to (0)=largely not true. Data are mean values.
In the case of `CC(C)C=O` [C1, Isobutyraldehyde], the Bitter taste was 2.0, the Pungent taste was 4.0 and the Stinging taste was 4.0. For `CC(C)CC=O` [C2, Isovaleraldehyde], the Bitter taste was 2.0, the Pungent taste was 4.0 and the Stinging taste was 4.0. In the case of `CC(C)C(=O)O` [C3, Isobutyric acid], the Bitter taste was 2.0, the Pungent taste was 3.9 and the Stinging taste was 4.0. In the case of `CC(C)CC(=O)O` [C4, Isovaleric acid], the Bitter taste was 1.8, the Pungent taste was 3.8 and the Stinging taste was 4.0.

No dose or concentration is given here for some results.
